From the supplement of paper PMC10849652
This is one part of the list.

The chains behind the UniProt entries cited, without tags or fusion partners. Where a name states a change or a piece, a line headed by the entry shows the natural chain unless it says otherwise.
UniProt Q8ND04: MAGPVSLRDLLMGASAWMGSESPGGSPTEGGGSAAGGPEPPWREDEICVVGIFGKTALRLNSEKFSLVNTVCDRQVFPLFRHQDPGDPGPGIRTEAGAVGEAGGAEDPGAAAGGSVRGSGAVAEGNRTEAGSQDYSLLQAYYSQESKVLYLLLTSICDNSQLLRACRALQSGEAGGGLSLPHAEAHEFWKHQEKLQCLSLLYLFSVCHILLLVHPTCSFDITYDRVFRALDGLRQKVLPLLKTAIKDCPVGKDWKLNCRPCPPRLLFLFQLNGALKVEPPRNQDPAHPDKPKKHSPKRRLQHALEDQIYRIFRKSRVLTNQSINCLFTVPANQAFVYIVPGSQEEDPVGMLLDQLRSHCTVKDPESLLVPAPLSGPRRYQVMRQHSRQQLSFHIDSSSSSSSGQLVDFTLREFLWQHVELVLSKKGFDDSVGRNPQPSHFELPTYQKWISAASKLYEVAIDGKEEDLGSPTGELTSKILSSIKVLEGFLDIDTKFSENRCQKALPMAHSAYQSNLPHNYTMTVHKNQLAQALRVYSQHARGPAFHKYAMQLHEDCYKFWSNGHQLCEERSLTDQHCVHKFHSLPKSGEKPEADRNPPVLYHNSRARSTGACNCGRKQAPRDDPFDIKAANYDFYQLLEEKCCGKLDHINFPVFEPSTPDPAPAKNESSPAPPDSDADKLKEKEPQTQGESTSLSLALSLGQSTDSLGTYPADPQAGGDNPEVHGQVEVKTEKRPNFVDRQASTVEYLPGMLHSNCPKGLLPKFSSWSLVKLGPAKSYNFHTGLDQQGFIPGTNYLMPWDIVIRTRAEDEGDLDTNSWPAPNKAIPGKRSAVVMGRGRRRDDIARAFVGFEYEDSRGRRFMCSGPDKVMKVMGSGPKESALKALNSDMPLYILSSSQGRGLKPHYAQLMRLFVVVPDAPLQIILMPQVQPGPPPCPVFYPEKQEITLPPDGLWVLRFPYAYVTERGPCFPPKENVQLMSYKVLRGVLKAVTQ
UniProt Q96SB8: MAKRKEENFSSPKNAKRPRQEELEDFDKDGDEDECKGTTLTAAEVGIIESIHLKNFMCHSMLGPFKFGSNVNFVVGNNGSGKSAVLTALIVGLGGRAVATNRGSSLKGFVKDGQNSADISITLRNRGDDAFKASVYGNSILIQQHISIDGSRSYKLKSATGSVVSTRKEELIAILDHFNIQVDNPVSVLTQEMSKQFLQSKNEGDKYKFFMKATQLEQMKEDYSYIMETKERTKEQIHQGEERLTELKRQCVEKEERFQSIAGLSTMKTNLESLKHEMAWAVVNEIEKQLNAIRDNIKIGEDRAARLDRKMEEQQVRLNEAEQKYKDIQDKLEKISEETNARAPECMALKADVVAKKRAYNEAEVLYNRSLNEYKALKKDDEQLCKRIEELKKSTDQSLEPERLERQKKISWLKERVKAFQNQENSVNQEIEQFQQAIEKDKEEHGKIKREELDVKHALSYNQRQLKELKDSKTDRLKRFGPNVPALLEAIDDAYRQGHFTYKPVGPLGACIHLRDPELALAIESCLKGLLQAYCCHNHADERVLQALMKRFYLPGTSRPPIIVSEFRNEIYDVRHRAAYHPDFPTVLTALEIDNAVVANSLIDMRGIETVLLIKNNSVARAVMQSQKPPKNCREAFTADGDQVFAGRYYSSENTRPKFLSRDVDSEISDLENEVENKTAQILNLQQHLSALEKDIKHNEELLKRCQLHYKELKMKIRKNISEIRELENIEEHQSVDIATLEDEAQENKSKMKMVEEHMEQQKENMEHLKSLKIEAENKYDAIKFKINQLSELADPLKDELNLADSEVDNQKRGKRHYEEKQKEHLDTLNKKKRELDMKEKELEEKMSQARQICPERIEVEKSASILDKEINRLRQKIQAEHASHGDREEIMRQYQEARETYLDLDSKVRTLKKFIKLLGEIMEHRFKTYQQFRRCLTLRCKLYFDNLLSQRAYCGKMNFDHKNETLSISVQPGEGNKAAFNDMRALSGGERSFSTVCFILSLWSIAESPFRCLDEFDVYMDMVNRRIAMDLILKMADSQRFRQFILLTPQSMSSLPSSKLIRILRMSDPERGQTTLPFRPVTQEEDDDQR
UniProt Q53HV7: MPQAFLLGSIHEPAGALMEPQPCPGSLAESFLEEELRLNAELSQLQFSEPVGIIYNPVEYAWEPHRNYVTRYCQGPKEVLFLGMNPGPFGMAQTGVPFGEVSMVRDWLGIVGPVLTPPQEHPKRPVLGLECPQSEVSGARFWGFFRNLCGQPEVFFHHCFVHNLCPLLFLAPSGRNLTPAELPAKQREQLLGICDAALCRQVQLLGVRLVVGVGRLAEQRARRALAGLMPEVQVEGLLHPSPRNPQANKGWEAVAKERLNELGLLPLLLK
UniProt O95295: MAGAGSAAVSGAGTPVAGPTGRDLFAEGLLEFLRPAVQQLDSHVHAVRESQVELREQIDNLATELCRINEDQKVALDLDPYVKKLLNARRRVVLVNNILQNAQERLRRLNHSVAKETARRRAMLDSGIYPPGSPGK
UniProt Q13424: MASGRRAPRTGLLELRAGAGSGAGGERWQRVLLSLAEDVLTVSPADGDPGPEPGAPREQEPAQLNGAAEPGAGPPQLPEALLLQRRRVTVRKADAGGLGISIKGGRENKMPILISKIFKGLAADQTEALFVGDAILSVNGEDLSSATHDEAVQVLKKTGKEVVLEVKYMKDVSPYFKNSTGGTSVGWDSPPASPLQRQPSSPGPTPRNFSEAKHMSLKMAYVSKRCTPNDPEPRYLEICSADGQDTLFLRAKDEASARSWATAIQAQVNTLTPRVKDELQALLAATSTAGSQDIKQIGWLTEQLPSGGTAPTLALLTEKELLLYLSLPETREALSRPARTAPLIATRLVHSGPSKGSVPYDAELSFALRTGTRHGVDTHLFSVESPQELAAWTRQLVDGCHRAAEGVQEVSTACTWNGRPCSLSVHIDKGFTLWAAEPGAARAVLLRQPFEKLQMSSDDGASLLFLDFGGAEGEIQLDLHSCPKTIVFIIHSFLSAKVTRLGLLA
UniProt Q8TEV9: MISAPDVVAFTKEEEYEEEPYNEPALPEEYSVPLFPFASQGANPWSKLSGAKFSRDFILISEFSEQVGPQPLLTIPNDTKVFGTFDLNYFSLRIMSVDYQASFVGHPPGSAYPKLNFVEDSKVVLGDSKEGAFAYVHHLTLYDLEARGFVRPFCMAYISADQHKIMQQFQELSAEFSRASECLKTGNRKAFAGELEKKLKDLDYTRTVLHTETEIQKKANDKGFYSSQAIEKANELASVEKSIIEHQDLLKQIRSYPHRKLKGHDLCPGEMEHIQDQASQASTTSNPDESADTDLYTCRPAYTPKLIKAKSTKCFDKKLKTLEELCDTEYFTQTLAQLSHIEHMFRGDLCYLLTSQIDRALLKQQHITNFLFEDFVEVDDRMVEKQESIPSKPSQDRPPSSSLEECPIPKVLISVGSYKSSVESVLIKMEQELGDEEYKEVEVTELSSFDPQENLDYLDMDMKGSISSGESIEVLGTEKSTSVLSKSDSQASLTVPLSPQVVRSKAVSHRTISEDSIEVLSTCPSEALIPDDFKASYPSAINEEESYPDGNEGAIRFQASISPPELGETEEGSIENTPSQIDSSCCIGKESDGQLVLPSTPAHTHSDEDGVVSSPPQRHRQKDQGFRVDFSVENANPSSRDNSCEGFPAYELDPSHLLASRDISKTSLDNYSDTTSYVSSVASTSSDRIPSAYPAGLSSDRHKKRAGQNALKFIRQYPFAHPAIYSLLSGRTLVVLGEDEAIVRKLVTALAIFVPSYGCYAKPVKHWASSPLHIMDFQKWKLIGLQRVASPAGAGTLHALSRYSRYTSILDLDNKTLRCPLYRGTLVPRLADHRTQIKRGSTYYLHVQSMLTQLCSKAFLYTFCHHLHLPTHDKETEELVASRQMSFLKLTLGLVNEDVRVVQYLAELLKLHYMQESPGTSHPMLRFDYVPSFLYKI
UniProt P08579, whole entry, looked up: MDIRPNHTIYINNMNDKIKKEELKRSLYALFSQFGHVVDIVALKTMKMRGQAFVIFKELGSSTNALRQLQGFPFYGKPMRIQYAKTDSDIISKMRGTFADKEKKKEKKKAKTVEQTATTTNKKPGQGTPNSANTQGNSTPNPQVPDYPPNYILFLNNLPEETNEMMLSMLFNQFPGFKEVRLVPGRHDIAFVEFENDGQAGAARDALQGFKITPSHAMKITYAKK
UniProt Q96DI7: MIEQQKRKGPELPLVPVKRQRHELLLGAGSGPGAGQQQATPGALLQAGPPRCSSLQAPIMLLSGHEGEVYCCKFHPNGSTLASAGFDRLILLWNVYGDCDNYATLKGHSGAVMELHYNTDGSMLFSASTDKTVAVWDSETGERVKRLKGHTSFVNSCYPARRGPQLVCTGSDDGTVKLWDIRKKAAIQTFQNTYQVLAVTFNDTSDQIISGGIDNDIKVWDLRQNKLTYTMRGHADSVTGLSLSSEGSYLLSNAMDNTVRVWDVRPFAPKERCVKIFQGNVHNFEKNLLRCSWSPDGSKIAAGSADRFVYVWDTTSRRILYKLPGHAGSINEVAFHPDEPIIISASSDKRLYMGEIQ
UniProt P51532, whole entry, looked up: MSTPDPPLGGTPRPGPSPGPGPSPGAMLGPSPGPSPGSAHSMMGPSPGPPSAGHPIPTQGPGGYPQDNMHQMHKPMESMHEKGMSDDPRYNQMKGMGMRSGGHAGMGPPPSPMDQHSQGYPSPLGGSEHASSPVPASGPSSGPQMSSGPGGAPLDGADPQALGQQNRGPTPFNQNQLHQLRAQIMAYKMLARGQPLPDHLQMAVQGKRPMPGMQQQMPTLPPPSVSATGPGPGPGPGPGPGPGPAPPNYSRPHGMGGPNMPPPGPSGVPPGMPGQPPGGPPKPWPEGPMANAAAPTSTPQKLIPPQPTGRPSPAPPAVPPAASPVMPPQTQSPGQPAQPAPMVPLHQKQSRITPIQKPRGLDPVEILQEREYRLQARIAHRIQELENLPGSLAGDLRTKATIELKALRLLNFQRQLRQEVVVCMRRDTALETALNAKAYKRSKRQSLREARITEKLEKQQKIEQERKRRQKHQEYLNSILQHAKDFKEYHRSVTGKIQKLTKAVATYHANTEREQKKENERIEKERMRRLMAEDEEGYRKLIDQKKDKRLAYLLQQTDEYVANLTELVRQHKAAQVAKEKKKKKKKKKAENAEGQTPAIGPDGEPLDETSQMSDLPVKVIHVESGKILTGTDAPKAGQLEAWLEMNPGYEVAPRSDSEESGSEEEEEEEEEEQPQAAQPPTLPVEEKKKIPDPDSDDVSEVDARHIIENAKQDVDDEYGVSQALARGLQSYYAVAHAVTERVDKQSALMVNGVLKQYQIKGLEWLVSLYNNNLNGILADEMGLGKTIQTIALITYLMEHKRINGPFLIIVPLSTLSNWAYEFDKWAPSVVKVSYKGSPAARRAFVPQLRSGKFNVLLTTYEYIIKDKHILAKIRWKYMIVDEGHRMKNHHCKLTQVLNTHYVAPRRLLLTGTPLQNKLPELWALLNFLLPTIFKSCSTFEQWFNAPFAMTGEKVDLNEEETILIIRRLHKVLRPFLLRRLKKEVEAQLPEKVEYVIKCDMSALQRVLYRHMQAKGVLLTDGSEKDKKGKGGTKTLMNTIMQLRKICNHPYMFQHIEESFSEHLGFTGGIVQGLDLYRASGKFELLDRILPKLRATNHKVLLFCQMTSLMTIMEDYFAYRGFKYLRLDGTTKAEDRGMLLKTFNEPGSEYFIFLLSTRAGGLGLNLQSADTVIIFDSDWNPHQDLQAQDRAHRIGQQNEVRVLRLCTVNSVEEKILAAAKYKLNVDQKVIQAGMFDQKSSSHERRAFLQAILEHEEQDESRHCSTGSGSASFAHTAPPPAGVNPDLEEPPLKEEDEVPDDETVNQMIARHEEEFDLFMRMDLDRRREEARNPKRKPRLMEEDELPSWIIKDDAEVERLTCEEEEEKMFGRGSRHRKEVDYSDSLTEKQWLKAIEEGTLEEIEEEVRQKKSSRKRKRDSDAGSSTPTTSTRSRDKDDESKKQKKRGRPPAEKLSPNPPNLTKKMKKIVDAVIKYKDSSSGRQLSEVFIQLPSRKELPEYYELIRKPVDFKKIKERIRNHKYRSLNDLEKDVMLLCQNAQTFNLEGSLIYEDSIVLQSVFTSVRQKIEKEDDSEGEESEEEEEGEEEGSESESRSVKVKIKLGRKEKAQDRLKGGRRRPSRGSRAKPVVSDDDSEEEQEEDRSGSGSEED
UniProt Q9Y5X3: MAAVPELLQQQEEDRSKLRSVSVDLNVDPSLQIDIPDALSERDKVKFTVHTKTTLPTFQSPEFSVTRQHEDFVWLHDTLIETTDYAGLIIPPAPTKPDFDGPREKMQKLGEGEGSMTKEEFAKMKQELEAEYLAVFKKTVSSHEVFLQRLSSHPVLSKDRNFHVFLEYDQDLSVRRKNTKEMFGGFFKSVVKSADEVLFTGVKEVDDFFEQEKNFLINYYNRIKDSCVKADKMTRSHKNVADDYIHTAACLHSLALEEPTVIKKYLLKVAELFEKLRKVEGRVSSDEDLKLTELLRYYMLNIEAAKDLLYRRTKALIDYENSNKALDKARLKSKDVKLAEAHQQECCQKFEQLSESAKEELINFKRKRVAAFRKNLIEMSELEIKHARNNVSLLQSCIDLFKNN

What was measured:
Test in all cases: log2 fold change, soluble protein after heating vs DMSO (PISA); higher = thermal stabilisation; K562 lysate, 10 uM; active = over 0.2 and 3.5 SD of the protein, either way, in both replicates (recomputed)
erlotinib = compound: C#Cc1cccc(Nc2ncnc3cc(OCCOC)c(OCCOC)cc23)c1 [erlotinib]
In short: (§1)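 Soluble protein was defined as the supernatant remaining after 21,000xg for 90 min, following pooling of heated aliquots and adjustment to 0.5% NP-40 at 4°C. Before that, crude K562 extract at 1 mg/mL protein in PBS pH 7.4 with 1 mM MgCl2 was treated with 10 μM compound for 30 min and heated for 3 min across 48°C-58°C. Quantification used TMTpro 16plex LC-MS/MS with channel sums equalised, and values are log-two fold changes in thermal stability relative to solvent controls from duplicates.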

[1] = compound: C/C(=N\NC(=O)C1=CC(=CC=C1)S(=O)(=O)N2CCOCC2)/C3=C(C=CC(=C3)Cl)O
In short: as §1

[2] = compound: C1=CC(=CC=C1C2=NC3=C(N2)C=C(C=C3)C(=O)N)OC4=CC=C(C=C4)Cl
In short: as §1

[3] = compound: C1=CC2=C(C=CC(=C2)/C=C\3/C(=O)NC(=NCC4=CC=CS4)S3)N=C1
In short: as §1

[4] = compound: C1=CC2=NC=CN=C2C=C1/C=C/3\C(=O)NC(=O)S3
In short: as §1

[5] = compound: C1=CC=C(C=C1)C2=NC(=C(N2)C3=CC=NC=C3)C4=CC(=C(C=C4)Cl)O
In short: as §1

[6] = compound: C1=CC=C2C(=C1)C3=NNC4=CC=CC(=C43)C2=O
In short: as §1

[7] = compound: C1CCN(C1)C(=O)NC2=CC=CC(=C2)NC3=NC=C(C(=N3)NCCC4=CN=CN4)Br
In short: as §1

[8] = compound: C1CN(CCC1(CC2=CC=C(C=C2)Cl)N)C3=NC=NC4=C3C=CN4
In short: as §1

IRAK-1-4 Inhibitor I = compound: C1COCCN1CCN2C3=CC=CC=C3N=C2NC(=O)C4=CC(=CC=C4)[N+](=O)[O-] [IRAK-1-4 Inhibitor I]
In short: as §1

ibrutinib = compound: C=CC(=O)N1CCC[C@@H](n2nc(-c3ccc(Oc4ccccc4)cc3)c3c(N)ncnc32)C1 [ibrutinib]
In short: as §1

[9] = compound: CC(=O)c1cnc2ccc(-c3cc(Cl)c(O)c(Cl)c3)nc2c1N[C@H]1CC[C@H](CN(C)C)CC1
In short: as §1

ralimetinib = compound: CC(C)(C)Cn1c(N)nc2ccc(-c3[nH]c(C(C)(C)C)nc3-c3ccc(F)cc3)nc21 [ralimetinib]
In short: as §1

[10] = compound: CC(C)(O)CC(=O)NCCn1ccc2ncnc(Nc3ccc(Oc4cccc(C(F)(F)F)c4)c(Cl)c3)c21
In short: as §1

[11] = compound: CC(C)C1=C2N=C(C=C(N2N=C1)NCC3=CC=CC=C3)NCCCCCCN
In short: as §1

[12] = compound: CC1=C(C(CC(=O)N1)C2=CC=C(C=C2)C(F)(F)F)C(=O)NC3=C(C=C4C(=C3)C=NN4)F
In short: as §1

[13] = compound: CC1=C(C2=C(C=C1)C(=O)C3=CC=CC=C3N2CCCN)C
In short: as §1

[14] = compound: CC1=C(C=C(C=C1)NC(=O)C2=CC(=CC=C2)C(C)(C)C#N)NC3=CC4=C(C=C3)N=CN(C4=O)C
In short: as §1

[15] = compound: CC1=C(C=C(C=C1)NC(=O)C2=CC(=CC=C2)N(C)C)NC(=O)C3=CC=C(C=C3)O
In short: as §1

[16] = compound: CC1=CC=C(C=C1)SC2=C3C=C(SC3=CN=C2)C(=O)N
In short: as §1

| Target | log2 fold change (erlotinib) | log2 fold change [1] | log2 fold change [2] | log2 fold change [3] | log2 fold change [4] | log2 fold change [5] | log2 fold change [6] | log2 fold change [7] | log2 fold change [8] | log2 fold change (IRAK-1-4 Inhibitor I) | log2 fold change (ibrutinib) | log2 fold change [9] | log2 fold change (ralimetinib) | log2 fold change [10] | log2 fold change [11] | log2 fold change [12] | log2 fold change [13] | log2 fold change [14] | log2 fold change [15] | log2 fold change [16] |
| --- | --- | --- | --- | --- | --- | --- | --- | --- | --- | --- | --- | --- | --- | --- | --- | --- | --- | --- | --- | --- |
| SMG8 isoform 2 (UniProt Q8ND04) | inactive: 0.057 | inactive: 0.021 | inactive: -0.166 | inactive: -0.047 | inactive: 0.016 | inactive: -0.065 | inactive: 0.007 | inactive: -0.011 | inactive: 0.014 | inactive: -0.115 | inactive: 0.01 | inactive: -0.018 | inactive: 0.038 | inactive: -0.046 | inactive: 0.02 | inactive: -0.024 | inactive: 0.013 | inactive: -0.044 | inactive: -0.053 | inactive: 0.046 |
| SMC6 (UniProt Q96SB8) | inactive: 0.02 | inactive: 0.038 | inactive: -0.03 | inactive: -0.002 | inactive: -0.009 | inactive: 0.019 | inactive: -0.055 | inactive: -0.031 | inactive: 0.03 | inactive: 0.01 | inactive: 0.021 | inactive: -0.006 | inactive: 0.005 | inactive: -0.012 | inactive: 0.023 | inactive: 0.065 | inactive: 0.006 | inactive: 0.006 | inactive: 0.001 | inactive: -0.01 |
| SMUG1 (UniProt Q53HV7) | inactive: 0.035 | inactive: -0.025 | inactive: 0.152 | inactive: 0.062 | inactive: -0.03 | inactive: 0.007 | inactive: -0.119 | inactive: -0.036 | inactive: 0.028 | inactive: 0.015 | inactive: 0.009 | inactive: 0.026 | inactive: 0.133 | inactive: -0.035 | inactive: -0.125 | inactive: -0.011 | inactive: -0.206 |  | inactive: -0.01 | inactive: -0.035 |
| SNAPIN (UniProt O95295) | inactive: -0.005 | inactive: 0.019 | inactive: 0.031 | inactive: 0.032 | inactive: 0.028 | inactive: 0.013 | inactive: 0 | inactive: -0.033 | inactive: 0.061 | inactive: -0.007 | inactive: 0.093 | inactive: -0.02 | inactive: 0.017 | inactive: -0.053 | inactive: 0.03 | inactive: -0.007 | inactive: -0.03 | inactive: 0.069 | inactive: 0.032 | inactive: 0.004 |
| SMARCC1 (UniProt Q92922) | inactive: 0.006 | inactive: -0.032 | inactive: 0.032 | inactive: 0.01 | inactive: -0.009 | inactive: 0.029 | inactive: -0.052 | inactive: -0.007 | inactive: 0.008 | inactive: -0.005 | inactive: 0.001 | inactive: -0.011 | inactive: 0.007 | inactive: -0.02 | inactive: 0.022 | inactive: 0.013 | inactive: -0.046 | inactive: -0.017 | inactive: 0.007 | inactive: -0.009 |
| SNRNP48 (UniProt Q6IEG0) | inactive: 0 | inactive: 0.187 | inactive: -0.035 | inactive: -0.119 | inactive: -0.019 | inactive: 0.023 | inactive: 0.153 | inactive: -0.015 | inactive: -0.079 | inactive: -0.048 | inactive: 0.004 | inactive: 0.095 | inactive: 0.083 | inactive: -0.031 | inactive: 0.034 | inactive: -0.012 | inactive: -0.132 | inactive: -0.045 | inactive: 0.01 | inactive: -0.025 |
| SNTA1 (UniProt Q13424) | inactive: -0.027 | inactive: -0.072 | inactive: 0.04 | inactive: -0.042 | inactive: -0.017 | inactive: -0.011 | inactive: 0.034 | inactive: 0.013 | inactive: -0.008 | inactive: 0.038 | inactive: 0.064 | inactive: 0.125 | inactive: -0.038 | inactive: -0.026 | inactive: -0.018 | inactive: -0.012 | inactive: 0 | inactive: 0.033 | inactive: -0.002 | inactive: -0.033 |
| SMCHD1 (UniProt A6NHR9) | inactive: 0.008 | inactive: 0.126 | inactive: 0.001 | inactive: -0.02 | inactive: -0.033 | inactive: 0.022 | inactive: -0.027 | inactive: 0.019 | inactive: 0.047 | inactive: 0.013 | inactive: -0.02 | inactive: 0.002 | inactive: 0.051 | inactive: 0.005 | inactive: 0.029 | inactive: 0.024 | inactive: -0.042 | inactive: 0.031 | inactive: 0.037 | inactive: 0.01 |
| SMCR8 (UniProt Q8TEV9) | inactive: 0.018 | inactive: 0.148 | inactive: -0.01 | inactive: -0.03 | inactive: -0.049 | inactive: -0.014 | inactive: -0.096 | inactive: 0.059 | inactive: -0.037 | inactive: 0.01 | inactive: 0.067 | inactive: 0.044 | inactive: -0.027 | inactive: 0.017 | inactive: -0.124 | inactive: 0 | inactive: 0.022 | inactive: 0 | inactive: 0.006 | inactive: 0 |
| SNRPA1 (UniProt P09661) | inactive: -0.047 | inactive: 0.042 | inactive: -0.012 | inactive: 0.008 | inactive: -0.007 | inactive: -0.034 | inactive: -0.001 | inactive: -0.013 | inactive: -0.022 | inactive: -0.01 | inactive: 0.023 | inactive: -0.003 | inactive: -0.001 | inactive: 0.017 | inactive: -0.013 | inactive: -0.002 | inactive: -0.017 | inactive: -0.018 | inactive: -0.011 | inactive: 0.011 |
| SNRPB2 (UniProt P08579) | inactive: 0.004 | inactive: 0.06 | inactive: -0.009 | inactive: 0.029 | inactive: -0.027 | inactive: -0.008 | inactive: -0.011 | inactive: -0.004 | inactive: 0.023 | inactive: 0.005 | inactive: 0.016 | inactive: -0.023 | inactive: -0.046 | inactive: 0.003 | inactive: 0.007 | inactive: -0.029 | inactive: -0.016 | inactive: 0.002 | inactive: -0.027 | inactive: -0.021 |
| SNX27 (UniProt Q96L92) | inactive: 0.024 | inactive: 0.022 | inactive: -0.012 | inactive: -0.019 | inactive: 0.001 | inactive: -0.03 | inactive: -0.038 | inactive: -0.018 | inactive: -0.009 | inactive: -0.013 | inactive: 0.014 | inactive: -0.037 | inactive: 0.026 | inactive: -0.013 | inactive: -0.012 | inactive: -0.007 | inactive: 0.047 | inactive: 0.032 | inactive: 0.016 | inactive: 0.008 |
| SNRNP40 (UniProt Q96DI7) | inactive: 0.025 | inactive: 0.046 | inactive: -0.03 | inactive: -0.031 | inactive: -0.031 | inactive: 0.009 | inactive: 0.011 | inactive: 0.02 | inactive: -0.004 | inactive: 0.01 | inactive: -0.008 | inactive: 0.026 | inactive: -0.03 | inactive: -0.047 | inactive: -0.02 | inactive: 0.042 | active: 0.332 | inactive: 0.02 | inactive: 0.069 | inactive: 0.029 |
| SMARCA4 (UniProt P51532) | inactive: -0.01 | inactive: -0.018 | inactive: -0.021 | inactive: 0.011 | inactive: -0.001 | inactive: -0.003 | inactive: -0.017 | inactive: -0.003 | inactive: -0.024 | inactive: -0.025 | inactive: 0.021 | inactive: -0.007 | inactive: 0.035 | inactive: 0.018 | inactive: -0.009 | inactive: -0.003 | inactive: -0.032 | inactive: -0.026 | inactive: 0.028 | inactive: 0.012 |
| SNX5 (UniProt Q9Y5X3) | inactive: -0.014 | inactive: 0.043 | inactive: -0.01 | inactive: -0.002 | inactive: -0.018 | inactive: 0.004 | inactive: -0.006 | inactive: -0.019 | inactive: -0.043 | inactive: -0.002 | inactive: -0.021 | inactive: 0.013 | inactive: -0.012 | inactive: 0.174 | inactive: 0 | inactive: -0.001 | inactive: 0.032 | inactive: -0.032 | inactive: 0.018 | inactive: 0.012 |
| SNX16 (UniProt P57768) | inactive: 0.057 | inactive: 0.017 | inactive: 0.103 | inactive: 0.043 | inactive: 0.091 | inactive: 0.019 | inactive: 0.027 | inactive: -0.008 | inactive: 0.019 | inactive: 0.058 | inactive: 0.057 | inactive: 0.014 | inactive: -0.015 | inactive: -0.005 | inactive: -0.02 | inactive: -0.09 | inactive: 0.01 | inactive: -0.027 | inactive: -0.027 | inactive: 0.031 |

Exported with bars between the fields: entries from further up
Target | log2 fold change (erlotinib) | log2 fold change [1] | log2 fold change [2] | log2 fold change [3] | log2 fold change [4] | log2 fold change [5] | log2 fold change [6] | log2 fold change [7] | log2 fold change [8] | log2 fold change (IRAK-1-4 Inhibitor I) | log2 fold change (ibrutinib) | log2 fold change [9] | log2 fold change (ralimetinib) | log2 fold change [10] | log2 fold change [11] | log2 fold change [12] | log2 fold change [13] | log2 fold change [14] | log2 fold change [15] | log2 fold change [16]
SNAPIN (UniProt O95295) | inactive: -0.005 | inactive: 0.019 | inactive: 0.031 | inactive: 0.032 | inactive: 0.028 | inactive: 0.013 | inactive: 0 | inactive: -0.033 | inactive: 0.061 | inactive: -0.007 | inactive: 0.093 | inactive: -0.02 | inactive: 0.017 | inactive: -0.053 | inactive: 0.03 | inactive: -0.007 | inactive: -0.03 | inactive: 0.069 | inactive: 0.032 | inactive: 0.004
SNRNP48 (UniProt Q6IEG0) | inactive: 0 | inactive: 0.187 | inactive: -0.035 | inactive: -0.119 | inactive: -0.019 | inactive: 0.023 | inactive: 0.153 | inactive: -0.015 | inactive: -0.079 | inactive: -0.048 | inactive: 0.004 | inactive: 0.095 | inactive: 0.083 | inactive: -0.031 | inactive: 0.034 | inactive: -0.012 | inactive: -0.132 | inactive: -0.045 | inactive: 0.01 | inactive: -0.025
